The record followed here is the supplement of paper PMC12067093, “Discovery and optimisation of a covalent ligand for TRIM25 and its application to targeted protein ubiquitination” (Chemical Science, 2025).

Chains of the proteins cited; added tags and fusions are not shown. Lines headed by an entry give the natural chain unless they say otherwise; changes in a name come on top.
UniProt O95319: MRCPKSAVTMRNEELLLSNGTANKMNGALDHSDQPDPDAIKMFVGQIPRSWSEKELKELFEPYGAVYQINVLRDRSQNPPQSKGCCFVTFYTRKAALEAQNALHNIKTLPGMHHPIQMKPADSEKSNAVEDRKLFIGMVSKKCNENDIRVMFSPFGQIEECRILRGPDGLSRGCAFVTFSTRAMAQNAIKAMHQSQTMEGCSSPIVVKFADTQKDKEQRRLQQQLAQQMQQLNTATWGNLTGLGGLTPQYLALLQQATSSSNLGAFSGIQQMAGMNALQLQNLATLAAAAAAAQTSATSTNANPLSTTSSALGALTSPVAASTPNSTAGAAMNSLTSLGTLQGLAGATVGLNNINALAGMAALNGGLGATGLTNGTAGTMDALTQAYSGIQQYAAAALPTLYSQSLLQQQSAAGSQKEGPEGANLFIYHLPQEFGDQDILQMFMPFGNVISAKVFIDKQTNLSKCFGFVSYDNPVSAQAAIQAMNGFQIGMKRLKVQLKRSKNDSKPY
UniProt P60953, whole entry, looked up: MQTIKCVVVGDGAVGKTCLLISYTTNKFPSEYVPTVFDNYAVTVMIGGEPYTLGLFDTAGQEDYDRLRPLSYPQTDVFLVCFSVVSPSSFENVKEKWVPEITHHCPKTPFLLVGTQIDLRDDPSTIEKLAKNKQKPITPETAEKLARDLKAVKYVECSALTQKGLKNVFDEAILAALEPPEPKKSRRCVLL
UniProt Q92879: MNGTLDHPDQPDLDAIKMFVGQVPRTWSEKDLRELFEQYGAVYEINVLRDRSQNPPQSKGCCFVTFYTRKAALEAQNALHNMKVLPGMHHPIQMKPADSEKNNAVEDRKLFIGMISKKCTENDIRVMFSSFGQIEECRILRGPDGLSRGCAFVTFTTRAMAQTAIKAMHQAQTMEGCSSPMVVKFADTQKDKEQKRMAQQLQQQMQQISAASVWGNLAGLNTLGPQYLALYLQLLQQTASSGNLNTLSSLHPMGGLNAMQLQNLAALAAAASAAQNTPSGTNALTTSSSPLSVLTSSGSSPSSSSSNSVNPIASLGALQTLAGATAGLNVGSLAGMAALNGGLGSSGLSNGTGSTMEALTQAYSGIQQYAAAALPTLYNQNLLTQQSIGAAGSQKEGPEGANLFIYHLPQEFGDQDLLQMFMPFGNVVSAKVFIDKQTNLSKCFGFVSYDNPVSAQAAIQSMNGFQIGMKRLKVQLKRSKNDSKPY
UniProt P60033: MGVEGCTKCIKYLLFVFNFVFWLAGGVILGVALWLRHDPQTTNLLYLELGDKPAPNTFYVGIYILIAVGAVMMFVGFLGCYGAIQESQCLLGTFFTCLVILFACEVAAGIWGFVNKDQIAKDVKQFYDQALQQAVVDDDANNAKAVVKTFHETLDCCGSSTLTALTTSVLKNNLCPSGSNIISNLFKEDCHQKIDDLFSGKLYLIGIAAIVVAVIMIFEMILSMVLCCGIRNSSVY
UniProt Q8TEP8: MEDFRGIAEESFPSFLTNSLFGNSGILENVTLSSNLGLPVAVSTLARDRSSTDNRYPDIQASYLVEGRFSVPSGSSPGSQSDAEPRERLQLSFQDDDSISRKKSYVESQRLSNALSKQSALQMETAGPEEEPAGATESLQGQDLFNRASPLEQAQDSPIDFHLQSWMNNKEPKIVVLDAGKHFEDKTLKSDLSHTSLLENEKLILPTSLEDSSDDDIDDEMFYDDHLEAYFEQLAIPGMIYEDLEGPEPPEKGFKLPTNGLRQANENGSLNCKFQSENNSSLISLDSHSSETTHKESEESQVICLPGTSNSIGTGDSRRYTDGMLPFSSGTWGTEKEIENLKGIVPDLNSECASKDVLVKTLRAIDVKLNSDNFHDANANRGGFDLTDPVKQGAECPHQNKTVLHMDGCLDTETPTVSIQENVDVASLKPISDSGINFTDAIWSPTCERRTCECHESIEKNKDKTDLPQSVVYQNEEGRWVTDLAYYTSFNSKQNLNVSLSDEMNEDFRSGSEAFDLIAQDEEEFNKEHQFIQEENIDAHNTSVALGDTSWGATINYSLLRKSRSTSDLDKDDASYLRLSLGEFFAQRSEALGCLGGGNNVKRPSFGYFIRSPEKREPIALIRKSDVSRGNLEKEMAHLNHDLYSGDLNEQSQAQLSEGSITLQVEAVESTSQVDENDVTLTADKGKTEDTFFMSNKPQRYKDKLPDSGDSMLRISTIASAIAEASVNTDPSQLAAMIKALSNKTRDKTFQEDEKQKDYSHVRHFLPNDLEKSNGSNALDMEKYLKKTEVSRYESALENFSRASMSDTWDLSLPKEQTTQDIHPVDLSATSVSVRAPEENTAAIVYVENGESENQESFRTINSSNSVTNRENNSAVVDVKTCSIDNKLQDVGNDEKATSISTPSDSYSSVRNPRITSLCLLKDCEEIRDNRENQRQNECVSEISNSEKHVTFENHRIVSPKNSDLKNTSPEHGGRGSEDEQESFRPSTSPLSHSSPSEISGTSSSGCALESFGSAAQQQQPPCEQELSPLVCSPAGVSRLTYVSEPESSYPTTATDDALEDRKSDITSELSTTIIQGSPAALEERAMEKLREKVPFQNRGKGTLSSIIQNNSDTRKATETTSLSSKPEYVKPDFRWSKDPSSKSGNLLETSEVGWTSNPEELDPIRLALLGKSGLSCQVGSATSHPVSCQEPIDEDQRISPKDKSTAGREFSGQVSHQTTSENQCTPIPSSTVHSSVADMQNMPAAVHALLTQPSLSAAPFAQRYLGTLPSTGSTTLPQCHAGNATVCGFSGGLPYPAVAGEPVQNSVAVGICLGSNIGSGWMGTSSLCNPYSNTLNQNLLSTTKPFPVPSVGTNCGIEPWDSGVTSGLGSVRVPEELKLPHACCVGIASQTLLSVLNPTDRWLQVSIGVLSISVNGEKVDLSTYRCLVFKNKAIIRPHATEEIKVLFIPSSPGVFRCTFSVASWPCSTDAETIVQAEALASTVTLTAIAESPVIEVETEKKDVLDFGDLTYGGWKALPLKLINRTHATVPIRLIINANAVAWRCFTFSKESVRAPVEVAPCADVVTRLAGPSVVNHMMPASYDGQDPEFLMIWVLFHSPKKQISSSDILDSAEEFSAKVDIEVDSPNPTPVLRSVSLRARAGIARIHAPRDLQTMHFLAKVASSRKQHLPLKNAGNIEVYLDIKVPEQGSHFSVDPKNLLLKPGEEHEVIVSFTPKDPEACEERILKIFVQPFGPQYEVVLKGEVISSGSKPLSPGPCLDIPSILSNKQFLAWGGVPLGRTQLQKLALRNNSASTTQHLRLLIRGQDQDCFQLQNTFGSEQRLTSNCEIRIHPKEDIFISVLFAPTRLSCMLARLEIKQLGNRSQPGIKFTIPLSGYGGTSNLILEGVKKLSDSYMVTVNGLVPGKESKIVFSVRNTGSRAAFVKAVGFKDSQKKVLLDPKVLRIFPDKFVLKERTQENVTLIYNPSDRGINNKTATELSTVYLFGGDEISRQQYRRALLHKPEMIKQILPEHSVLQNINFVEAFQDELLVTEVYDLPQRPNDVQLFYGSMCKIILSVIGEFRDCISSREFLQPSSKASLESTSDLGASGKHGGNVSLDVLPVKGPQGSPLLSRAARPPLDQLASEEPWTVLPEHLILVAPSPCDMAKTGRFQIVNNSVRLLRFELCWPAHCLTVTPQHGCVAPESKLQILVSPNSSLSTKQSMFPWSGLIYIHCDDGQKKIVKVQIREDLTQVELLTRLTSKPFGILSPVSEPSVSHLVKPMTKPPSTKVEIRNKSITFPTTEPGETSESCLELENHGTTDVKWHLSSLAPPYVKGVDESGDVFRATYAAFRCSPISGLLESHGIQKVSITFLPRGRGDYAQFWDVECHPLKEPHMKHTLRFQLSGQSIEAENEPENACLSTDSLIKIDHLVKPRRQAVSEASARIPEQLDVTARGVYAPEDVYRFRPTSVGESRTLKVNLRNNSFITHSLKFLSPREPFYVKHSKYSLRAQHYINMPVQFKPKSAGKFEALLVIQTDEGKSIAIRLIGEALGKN
UniProt P32970: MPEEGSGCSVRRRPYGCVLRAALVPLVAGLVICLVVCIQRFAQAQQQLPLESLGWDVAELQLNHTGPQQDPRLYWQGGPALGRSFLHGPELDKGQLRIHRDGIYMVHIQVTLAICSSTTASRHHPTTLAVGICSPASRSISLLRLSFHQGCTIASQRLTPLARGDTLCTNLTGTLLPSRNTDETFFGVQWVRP
UniProt P23141: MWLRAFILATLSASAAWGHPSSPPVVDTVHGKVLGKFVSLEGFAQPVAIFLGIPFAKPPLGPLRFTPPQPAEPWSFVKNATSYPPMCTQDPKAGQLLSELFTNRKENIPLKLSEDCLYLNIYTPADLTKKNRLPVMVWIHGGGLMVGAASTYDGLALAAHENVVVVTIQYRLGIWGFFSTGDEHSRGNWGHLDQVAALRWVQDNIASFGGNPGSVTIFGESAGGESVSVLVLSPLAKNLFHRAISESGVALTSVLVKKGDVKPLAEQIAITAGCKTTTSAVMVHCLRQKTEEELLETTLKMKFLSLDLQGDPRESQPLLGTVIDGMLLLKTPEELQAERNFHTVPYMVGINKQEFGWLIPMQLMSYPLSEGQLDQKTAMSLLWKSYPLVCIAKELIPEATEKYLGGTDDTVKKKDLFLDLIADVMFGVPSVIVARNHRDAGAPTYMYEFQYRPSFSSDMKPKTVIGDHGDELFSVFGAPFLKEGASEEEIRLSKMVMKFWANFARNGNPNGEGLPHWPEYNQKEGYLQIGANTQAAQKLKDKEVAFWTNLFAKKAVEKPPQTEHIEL
UniProt Q99832: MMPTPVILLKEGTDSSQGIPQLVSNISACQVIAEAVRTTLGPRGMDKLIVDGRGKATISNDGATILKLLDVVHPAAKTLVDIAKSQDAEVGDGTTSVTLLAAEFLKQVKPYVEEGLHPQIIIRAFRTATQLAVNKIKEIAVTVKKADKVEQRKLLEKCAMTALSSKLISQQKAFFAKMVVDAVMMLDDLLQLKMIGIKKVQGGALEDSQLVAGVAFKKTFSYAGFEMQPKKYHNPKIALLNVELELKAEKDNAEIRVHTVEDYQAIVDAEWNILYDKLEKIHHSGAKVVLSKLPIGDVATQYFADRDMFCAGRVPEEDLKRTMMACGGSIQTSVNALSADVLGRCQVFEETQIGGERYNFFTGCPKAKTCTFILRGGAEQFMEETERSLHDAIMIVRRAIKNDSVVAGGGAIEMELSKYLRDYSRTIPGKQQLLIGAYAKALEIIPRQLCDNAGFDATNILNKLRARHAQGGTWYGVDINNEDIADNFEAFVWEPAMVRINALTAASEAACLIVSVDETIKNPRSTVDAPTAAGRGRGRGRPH
UniProt P25942, whole entry, looked up: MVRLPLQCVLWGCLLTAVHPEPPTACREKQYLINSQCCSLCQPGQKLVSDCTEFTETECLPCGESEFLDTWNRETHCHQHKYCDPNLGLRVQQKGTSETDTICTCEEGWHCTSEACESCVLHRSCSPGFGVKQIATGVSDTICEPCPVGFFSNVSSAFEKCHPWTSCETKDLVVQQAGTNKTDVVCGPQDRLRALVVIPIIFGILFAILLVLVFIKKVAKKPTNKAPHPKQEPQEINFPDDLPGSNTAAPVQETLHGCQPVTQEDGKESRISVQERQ
UniProt P30260, whole entry, looked up: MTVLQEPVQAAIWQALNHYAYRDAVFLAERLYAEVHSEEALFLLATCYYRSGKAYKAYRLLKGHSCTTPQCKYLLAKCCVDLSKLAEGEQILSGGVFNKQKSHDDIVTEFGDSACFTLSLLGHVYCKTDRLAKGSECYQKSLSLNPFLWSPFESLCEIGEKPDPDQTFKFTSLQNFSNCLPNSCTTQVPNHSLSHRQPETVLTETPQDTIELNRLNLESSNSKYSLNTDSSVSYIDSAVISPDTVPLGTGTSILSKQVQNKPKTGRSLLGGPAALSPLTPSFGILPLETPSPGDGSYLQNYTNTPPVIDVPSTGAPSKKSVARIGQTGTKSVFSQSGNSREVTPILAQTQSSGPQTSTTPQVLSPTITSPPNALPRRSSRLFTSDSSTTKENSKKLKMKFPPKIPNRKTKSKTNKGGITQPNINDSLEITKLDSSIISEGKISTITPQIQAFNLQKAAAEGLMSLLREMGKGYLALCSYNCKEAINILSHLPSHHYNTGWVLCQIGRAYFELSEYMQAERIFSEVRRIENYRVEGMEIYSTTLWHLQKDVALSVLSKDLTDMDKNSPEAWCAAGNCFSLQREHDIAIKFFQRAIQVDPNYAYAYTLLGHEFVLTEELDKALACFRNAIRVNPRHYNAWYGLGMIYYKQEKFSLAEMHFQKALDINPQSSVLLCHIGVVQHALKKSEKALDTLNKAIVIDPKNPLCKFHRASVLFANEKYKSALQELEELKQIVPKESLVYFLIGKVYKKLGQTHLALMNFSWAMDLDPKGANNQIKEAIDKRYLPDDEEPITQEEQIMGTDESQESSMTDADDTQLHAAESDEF

The other results are listed elsewhere or left out.
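Further: competitive profiling in live THP-1 cells: cysteine peptides tagged with an iodoacetamide desthiobiotin (IA-DTB) probe, intensity after compound treatment relative to DMSO-treated cells.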

Compound in this assay: Cc1cc(ccc1-c1ccccc1)C(=O)N1CCCN(CC1)C(=O)CCl [compound 10]
The assay can be described thus: probe-labelled cysteine peptide fold change vs DMSO (competition) (log2 fold change); higher = less target engagement (more negative = stronger competition). The note with it: 10 µM; THP-1; incubation time: 4 h.
For the target “CD37_P11049_217_HSADICAVPAESHIYR (UniProt P11049)”, the “probe-labelled cysteine peptide fold change” value is -0.396.

Consider “CDK8_P49336_64_QIEGTGISMSACR (UniProt P49336)”, for which the “probe-labelled cysteine peptide fold change” value was -0.111.

For “CEP250_Q9BV73_110_CESLAEVNTQLR (UniProt Q9BV73)”, the “probe-labelled cysteine peptide fold change” value was 0.0275. Regarding “CELF2_O95319_174_GCAFVTFSTR (UniProt O95319)”, the “probe-labelled cysteine peptide fold change” value was determined as 0.0275. The value for “CCT8_P50990_136_IGLSVSEVIEGYEIACRK (UniProt P50990)” was 0.418; that for “CCT8_P50990_187_LIAQACVSIFPDSGHFNVDNIR (UniProt P50990)” was 0.0716.

On to “CDC42_P60953_105_WVPEITHHCPK (UniProt P60953)”, for which the “probe-labelled cysteine peptide fold change” value is 0.0222. “CELF1_Q92879_150_GCAFVTFTTR (UniProt Q92879)”: the “probe-labelled cysteine peptide fold change” value was -0.0102.

On to “CD81_P60033_175_NNLCPSGSNIISNLFK (UniProt P60033)”, for which the “probe-labelled cysteine peptide fold change” value is -0.0474.

As to “CEP192_Q8TEP8_1828_LTSNCEIR (UniProt Q8TEP8)”, the “probe-labelled cysteine peptide fold change” value amounted to 0.121. As for “CEP350_Q5VT06_211_FLNDRPAIDALQNSECLIR (UniProt Q5VT06)”, the “probe-labelled cysteine peptide fold change” value was -0.364. Consider “CDKN2AIP_Q9NXV6_503_SSQESIVCELR (UniProt Q9NXV6)”, for which the “probe-labelled cysteine peptide fold change” value is 0.153.

Turning to “CDC16_Q13042_455_AIGNEVTVDKWEPLLNNLGHVCR (UniProt Q13042)”, the “probe-labelled cysteine peptide fold change” value amounted to 0.00676. Regarding “CD70_P32970_151_LSFHQGCTIASQR (UniProt P32970)”, the “probe-labelled cysteine peptide fold change” value is -0.0511. Regarding “CES1_P23141_274_PLAEQIAITAGCK (UniProt P23141)”, the “probe-labelled cysteine peptide fold change” value is -0.275. On to “CES1_P23141_274_KGDVKPLAEQIAITAGCK (UniProt P23141)”, for which the “probe-labelled cysteine peptide fold change” value was -0.0673. The same measure for “CELF1_Q92879_137_VMFSSFGQIEECR (UniProt Q92879)”: 0.192; for “CENPF_P49454_503_EVCHLEAELK (UniProt P49454)”: 0.255. For the target “CCT7_Q99832_310_LPIGDVATQYFADRDMFCAGR (UniProt Q99832)”, the “probe-labelled cysteine peptide fold change” value is -0.113. The value for “CCT8_P50990_347_LTPPVLEEMGHCDSVYLSEVGDTQVVVFKHEKEDGAISTIVLR (UniProt P50990)” was -0.293; that for “CD40_P25942_186_TDVVCGPQDR (UniProt P25942)” was -0.371. Consider “CEP350_Q5VT06_2412_DSQSCR (UniProt Q5VT06)”, for which the “probe-labelled cysteine peptide fold change” value was -0.469.

In the case of “CCT5_P48643_440_CPTLEQYAMR (UniProt P48643)”, the “probe-labelled cysteine peptide fold change” value was -0.19.

Regarding “CD40_P25942_116+119_GTSETDTICTCEEGWHCTSEACESCVLHR (UniProt P25942)”, the “probe-labelled cysteine peptide fold change” value was -0.262. On to “CEP350_Q5VT06_2910_RVTQQPCETLLAVPHTAEEVEILVHNAAEELWK (UniProt Q5VT06)”, for which the “probe-labelled cysteine peptide fold change” value is -0.0741. “CEP192_Q8TEP8_396_QGAECPHQNK (UniProt Q8TEP8)”: the “probe-labelled cysteine peptide fold change” value is -0.122. “CDC45_O75419_267_HNHRNEDEENTLSVDCTR (UniProt O75419)”: the “probe-labelled cysteine peptide fold change” value came out at 0.0632. As for “CDK5RAP3_Q96JB5_150_KEEECQAGAAEMR (UniProt Q96JB5)”, the “probe-labelled cysteine peptide fold change” value is -0.0706. The same measure for “CEP41_Q9BYV8_240_IIILYDDDERLASQAATTMCER (UniProt Q9BYV8)”: 0.089. The value for “CCT7_Q99832_326_RTMMACGGSIQTSVNALSADVLGR (UniProt Q99832)” was 0.0835; that for “CEP85_Q6P2H3_380_PAPFGDVCLLR (UniProt Q6P2H3)” was -0.0545. In the case of “CCT6A_P40227_282_VCGDSDK (UniProt P40227)”, the “probe-labelled cysteine peptide fold change” value amounted to 0.0167. As for “CDC42_P60953_105_EKWVPEITHHCPK (UniProt P60953)”, the “probe-labelled cysteine peptide fold change” value was -0.508. The value for “CDC27_P30260_115_SHDDIVTEFGDSACFTLSLLGHVYCK (UniProt P30260)” was 0.151; that for “CDC23_Q9UJX2_324_SELSYLAHNLCEIDK (UniProt Q9UJX2)” was 0.135. The value for “CEP97_Q8IW35_484_AGLLPCPEPTIISAILK (UniProt Q8IW35)” was -0.107. The value for “CDCA7L_Q96GN5_383_GQFCGPCLR (UniProt Q96GN5)” was -0.000758; that for “CEP120_Q8N960_762_AKEDCIHQVELER (UniProt Q8N960)” was 0.0554; that for “CELF2_O95319_161_VMFSPFGQIEECR (UniProt O95319)” was 0.0611.
